# Measured values: the supplement of paper PMC8728848
# Some of the results follow.
# B1: Mnn9-2N3 (Aspergillus fumigatus) (protein)
# chain: MAVARRMRRTNPITLLLAAILAIGFFIFVLSPSTTSASPVKAGSASSSSTSQQRREDNAAENPLSPPTKPFFKSQPVRHDGQQAPPPVVQYNLNQLSSTSTSAANGERILILTPMARFVPEYWDNVVKLTYPHELISIGFIIPKNKEGNAALAALEAAIAKTQSGPIDKRFASISILRQDFEPPLQSQDEKERHKISNQKARRESMSRARNSLLFTTLGPATAWVLWLDADIVETPPTLIQDLTAHDHPVLVPNCYQRYYNSEKKKMDVRPYDYNSWIDSSTAQSMAAEMGPDEILLEGYAEMPTYRTLMAHLADTANPNPKKVIELDGVGGTALMVKAEVHRDGAMFPAFPFYHLVETEGFAKMAKRLGYSVYGLPDYFVSRNFFFFFFFFFFG
# Columns and labels:
# [1] = target: Neu5Gc(a2-8)Neu5Gc(a2-6)Gal(b1-4)GlcNAc; test: glycan array binding signal (z-score within array); higher = stronger binding; details: glycan notation: IUPAC condensed, linker removed
# Method in brief: (§1)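 The binding signal is a Z-score computed within each array. Data were drawn from 3228 arrays in the Consortium for Functional Glycomics database, restricted to those with a known protein sequence. Scores were averaged over arrays of the same protein sequence at different concentrations or buffers, and over linkers, and negative values can be taken as non-binding.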
# [2] = target: Neu5Gc(b2-6)Gal(b1-4)GlcNAc; test: as above; details: glycan notation: IUPAC condensed, linker removed
# Method in brief: as §1
binder,measurement,setting,value
B1,glycan array binding signal (z-score),[1],0.089
same,glycan array binding signal (z-score),[2],-0.3
